Results taken from PubChem BioAssay AID328 (DTP/NCI, 2004).
The list does not hold the whole screen: it is rich in T/C values a quarter to a half above the control, in often repeated tests (any T/C) and in doses without a T/C. Further doses and runs are listed elsewhere. T/C: endpoint of the treated group in % of that of the vehicle group. Some doses have a count of surviving animals in place of a T/C: the source files T/C as zero there, which appears to mark a toxic dose or a test without result, not a measured value. Some survivor counts are full or nearly so, which does not show that the dose was tolerated: the source hardly ever lists a survival T/C far under the control, and the zero likely stands for such cases as well. Counts of survivors are from the toxicity check (mostly the fifth day) where no day follows; animals may have died later. Schedules are NCI's codes, taken here to give the interval after Q, in days (D) or hours (H), and the number of doses after X. For survival time, this PubChem deposit counts one and a half times the control or more as active, and values a quarter to a half above the control carry no call in these data; other NCI protocols may use other cut-offs. Some doses were run more than once; their values stand side by side, smallest first. Counts like (3×) stand for listed records that agree. Some T/C values carry the count of animals alive at the toxicity check (mostly the fifth day); where none is given, no animal had died by that day.

Tested on: BDF1 mice, P388 leukemia ip, median survival T/C
Experiment: NCI In Vivo Anticancer Drug Screen. Data for tumor model P388 Leukemia (intraperitoneal) in B6D2F1 (BDF1) mice
Details: T/C endpoint: median survival time, higher T/C = longer survival
Outline: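 Antitumour effect was judged in vivo: survival in drug-treated mice, normalised to that of vehicle-dosed controls, gives the reported T/C.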

SMILES: COc1cccc2c1C(=O)c1c(O)c3c(c(O)c1C2=O)C[C@@](O)(C(=O)CO)C[C@@H]3OC1CC(N)C(O)C(C)O1 (stereo partly specified)
- T/C (dose: 0.2 mg/kg/injection, schedule: Q01DX009 (ip), vehicle: water): 148 % of control
- T/C (dose: 0.25 mg/kg/injection, schedule: Q01DX009 (ip), vehicle: water, evaluated on day 28): 170 % of control
- T/C (dose: 0.25 mg/kg/injection, schedule: Q01DX009 (ip), vehicle: water, evaluated on day 30): 149 % of control
- T/C (dose: 0.25 mg/kg/injection, schedule: Q01DX009 (ip), vehicle: water, evaluated on day 32): 131 and 159 % of control
- T/C (dose: 0.25 mg/kg/injection, schedule: Q01DX009 (ip), vehicle: water, evaluated on day 33): 125 % of control
- T/C (dose: 0.39 mg/kg/injection, schedule: Q01DX009 (ip), vehicle: saline): 142 % of control
- T/C (dose: 0.44 mg/kg/injection, schedule: Q03HX024 (ip), vehicle: saline, evaluated on day 5): 134, 155, 277, 500 % of control
- T/C (dose: 0.44 mg/kg/injection, schedule: Q03HX024 (ip), vehicle: saline, evaluated on day 60): 134, 155, 277, 500 % of control
- T/C (dose: 0.5 mg/kg/injection, schedule: Q01DX001 (ip), vehicle: saline): 138 % of control
- T/C (dose: 0.5 mg/kg/injection, schedule: Q01DX009 (ip), vehicle: water, evaluated on day 28): 166 % of control
- T/C (dose: 0.5 mg/kg/injection, schedule: Q01DX009 (ip), vehicle: water, evaluated on day 30): 172 % of control
- T/C (dose: 0.5 mg/kg/injection, schedule: Q01DX009 (ip), vehicle: water, evaluated on day 32): 134 and 194 % of control
- T/C (dose: 0.5 mg/kg/injection, schedule: Q01DX009 (ip), vehicle: water, evaluated on day 33): 126 % of control
- T/C (dose: 0.5 mg/kg/injection, schedule: Q01DX009 (ip), vehicle: water, evaluated on day 41): 226 % of control
- T/C (dose: 0.5 mg/kg/injection, schedule: Q04DX003 (ip), vehicle: water, evaluated on day 30): 157 % of control
- T/C (dose: 0.5 mg/kg/injection, schedule: Q04DX003 (ip), vehicle: water, evaluated on day 32): 137 % of control
- T/C (dose: 0.5 mg/kg/injection, schedule: Q04DX003 (ip), vehicle: water, evaluated on day 34): 166 % of control
- T/C (dose: 0.5 mg/kg/injection, schedule: Q04DX003 (ip), vehicle: water, evaluated on day 38): 190 % of control
- T/C (dose: 0.5 mg/kg/injection, schedule: Q04DX003 (ip), vehicle: water, evaluated on day 46): 153 % of control
- T/C (dose: 0.67 mg/kg/injection, schedule: Q03HX024 (ip), vehicle: saline, evaluated on day 5): 141, 187, 365, 539 % of control
- T/C (dose: 0.67 mg/kg/injection, schedule: Q03HX024 (ip), vehicle: saline, evaluated on day 60): 141, 187, 365, 539 % of control
- T/C (dose: 1.0 mg/kg/injection, schedule: Q01DX009 (ip), vehicle: water, evaluated on day 28): 154 % of control
- T/C (dose: 1.0 mg/kg/injection, schedule: Q01DX009 (ip), vehicle: water, evaluated on day 30): 201 % of control
- T/C (dose: 1.0 mg/kg/injection, schedule: Q01DX009 (ip), vehicle: water, evaluated on day 32): 157 and 215 % of control
- T/C (dose: 1.0 mg/kg/injection, schedule: Q01DX009 (ip), vehicle: water, evaluated on day 33): 155 % of control [5 of 6 alive]
- T/C (dose: 1.0 mg/kg/injection, schedule: Q01DX009 (ip), vehicle: water, evaluated on day 41): 245 % of control
- T/C (dose: 1.0 mg/kg/injection, schedule: Q01DX009 (sc), vehicle: saline): 130 % of control
- T/C (dose: 1.0 mg/kg/injection, schedule: Q03HX024 (ip), vehicle: saline, evaluated on day 5): 115, 162, 207 % of control
- T/C (dose: 1.0 mg/kg/injection, schedule: Q03HX024 (ip), vehicle: saline, evaluated on day 60): 115, 162, 207, 230 % of control
- T/C (dose: 1.0 mg/kg/injection, schedule: Q03HX024 (sc), vehicle: saline): 130 % of control
- T/C (dose: 1.0 mg/kg/injection, schedule: Q04DX003 (ip), vehicle: water, evaluated on day 30): 108 [5 of 6 alive], 113 (2×), 116, 124, 132, 133, 166 % of control
- T/C (dose: 1.0 mg/kg/injection, schedule: Q04DX003 (ip), vehicle: water, evaluated on day 32): 147 % of control
- T/C (dose: 1.0 mg/kg/injection, schedule: Q04DX003 (ip), vehicle: water, evaluated on day 34): 210 % of control
- T/C (dose: 1.0 mg/kg/injection, schedule: Q04DX003 (ip), vehicle: water, evaluated on day 38): 213 % of control
- T/C (dose: 1.0 mg/kg/injection, schedule: Q04DX003 (ip), vehicle: water, evaluated on day 41): 235 % of control
- T/C (dose: 1.0 mg/kg/injection, schedule: Q04DX003 (ip), vehicle: water, evaluated on day 46): 166 % of control
- T/C (dose: 1.44 mg/kg/injection, schedule: Q04DX003 (ip), vehicle: water): 151, 165, 177, 181, 190, 212, 213, 245 % of control
- T/C (dose: 1.5 mg/kg/injection, schedule: Q01DX009 (sc), vehicle: saline): 135 % of control
- survivor count (dose: 1.5 mg/kg/injection, schedule: Q03HX016 (ip), vehicle: saline): 10 of 10
- survivor count (dose: 1.56 mg/kg/injection, schedule: Q01DX009 (ip), vehicle: water): 3 of 3
- T/C (dose: 1.73 mg/kg/injection, schedule: Q04DX003 (ip), vehicle: saline): 200, 203, 212, 213 (2×), 215, 220, 229, 242 % of control
- T/C (dose: 1.8 mg/kg/injection, schedule: Q04DX003 (ip), vehicle: water, evaluated on day 7): 146 and 155 % of control
- T/C (dose: 1.8 mg/kg/injection, schedule: Q04DX003 (ip), vehicle: water, evaluated on day 62): 146 and 155 % of control
- T/C (dose: 2.0 mg/kg/injection, schedule: Q01DX001 (ip), vehicle: saline, evaluated on day 5): 170, 188, 191 % of control
- T/C (dose: 2.0 mg/kg/injection, schedule: Q01DX001 (ip), vehicle: saline, evaluated on day 8): 161 % of control
- T/C (dose: 2.0 mg/kg/injection, schedule: Q01DX001 (ip), vehicle: saline, evaluated on day 11): 100 % of control
- T/C (dose: 2.0 mg/kg/injection, schedule: Q01DX001 (ip), vehicle: saline, evaluated on day 90): 188 % of control
- T/C (dose: 2.0 mg/kg/injection, schedule: Q01DX009 (ip), vehicle: water, evaluated on day 28): 220 % of control
- T/C (dose: 2.0 mg/kg/injection, schedule: Q01DX009 (ip), vehicle: water, evaluated on day 30): 117 % of control
- T/C (dose: 2.0 mg/kg/injection, schedule: Q01DX009 (ip), vehicle: water, evaluated on day 32): 178 and 284 % of control
- T/C (dose: 2.0 mg/kg/injection, schedule: Q01DX009 (ip), vehicle: water, evaluated on day 33): 196 % of control
